Source: ChEMBL document CHEMBL3988442, “University of Dundee, Small-Polar-MMV Screening Library” (2021).

A: 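Whole-parasite assay of Trypanosoma brucei over 72 hours; the read-out is not stated. Concentration: 30 µM. Direction is inferred from retests: higher values go with stronger inhibition. Values scatter widely below zero; nearly all retest evidence comes from the higher of the two concentrations used. Size under these conditions: about 64,000 compounds, about 940 of them at 50% or above in at least one test.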
B: 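Assay of Toxoplasma gondii numbers, read through their beta-galactosidase reporter with a colour substrate. Compounds at 10 µM. The record gives no direction; the compounds picked for IC50 retests had high values, so higher reads as fewer parasites. Size under these conditions: about 67,000 compounds, about 260 of them at 50% or above in at least one test.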

The filed quantity is “Percent Effect” (%).
The record does not define 0% and 100%; most values in the screen are far below 50% and negative numbers occur (in some assays of this library far below -100).
Compounds were drawn at random from those tested, without regard to their results.
A dash means the value is not listed here; it may have been measured.

structure | A | B
CCCNCc1ccc(-c2cc(N)nc3[nH]ccc23)cc1 | 58.31% | 16.52%
CCCc1ccc(OCCNCc2ccco2)c(OC)c1.Cl | 17.38% | 10.04%
Cc1n[nH]c(C2CN(CC(=O)NCc3ccco3)CCO2)n1 (configuration not stated) | -15.85% | -7.379%
COCCN1CCN(CC(O)c2ccc(OC(F)(F)F)cc2)CC1 (configuration not stated) | -10.92% | 3.804%
CN(Cc1ccc(C#N)cc1)c1ncc(C(N)=O)cc1Cl | 12.46% | -0.6818%
CCCN1CCC(Cc2noc(-c3cccnc3OC)n2)CC1 | 2.218% | 10.98%
CNc1nc2c(c(C(=O)N3CCCC3)n1)CN(C(=O)C1CCCC1)CC2 | -44.75% | 35%
CN(C)c1nc(N)nc(CN2CCCC(c3ccccc3)CC2)n1 (configuration not stated) | -67.4% | 0.9671%
Cc1cc(O)c(OCC(=O)/N=c2\[nH]c(C)cs2)cn1 | -14.8% | -6.554%
CC(NC(=O)CCOc1cccc(F)c1)c1nnc2n1CCC2 (configuration not stated) | -16.39% | -4.135%
CC1CN(C)CCN1Cc1cccc(C(=O)N(C)C)c1 (configuration not stated) | -6.904% | 3.63%
O=C(N[C@]12CC1CN(C(=O)c1ccco1)C2)c1ccoc1 (some centres not stated) | -8.233% | -0.4757%
CC(C)(NS(C)(=O)=O)c1nc(-c2ccncc2)no1 | -45.35% | 25.71%
CS(=O)(=O)CCCN(CCc1cccc(F)c1)C1CC1 | -28.97% | 1.749%
Cc1nc(CN2CCCC(N(C)CCOCC(F)(F)F)C2)no1 (configuration not stated) | -15.59% | 17.58%
Cn1ccc(C(=O)N2CCCC2c2cc(CCO)[nH]n2)n1 (configuration not stated) | -6.567% | 0.8631%
Cc1ccc(N2CCCN(C(=O)CCCn3ccnc3C)CC2)nn1 | -54.55% | 2.754%
N#CC1(NC(=O)c2nccc3ccccc23)CCSCC1 | -53.62% | 9.481%
CC(C)c1ccc(C2CC(=O)Nc3c2cnn3C)cc1 (configuration not stated) | -30.29% | 2.155%
O=c1cc(Cn2ccnc2)nc2n1CCCN(Cc1ccsc1)C2 | -16.46% | -1.195%
Nc1cc(-c2cc(O)cc(C(=O)O)c2)c2cc[nH]c2n1 | -9.984% | -12.42%
COc1cc(CNCC(O)c2ccc(C)cc2)cc2c1OCCO2.Cl (configuration not stated) | 42.56% | 9.693%
Cc1nc(C)c(CNCC2CCCn3ccnc32)s1 (configuration not stated) | -1.913% | 14.45%
COCCn1ccc(NC(=O)Nc2ccc(C)cc2)n1 | 21.8% | 9.315%
O=C(Cc1cccc(F)c1)N1CCCCC1c1ccn2ccnc2n1 (configuration not stated) | -36.38% | -66.05%
Cc1nccn1C1CCCN(C(=O)c2ccc(N(C)C)nc2)C1 (configuration not stated) | 59.27% | -9.102%
O=C(Nc1ccc2scnc2c1)N1CCN([C@H]2CCCC[C@@H]2O)CC1 | 9.585% | -3.872%
CC(C)N(C)CC(=O)NCc1ccccc1N1CCN(C)CC1 | -27.97% | 13.98%
Cn1cc(C2=NOC(C(=O)NC3(c4ccccc4F)CCCC3)C2)cn1 (configuration not stated) | -15.25% | 0.7634%
Cc1nsc(N2CCc3sccc3C2)n1 | -53.56% | 3.974%
Cn1ccnc1CCC1CCCCN1Cc1cnc(N2CCCC2)nc1 (configuration not stated) | 38.65% | 2.243%
[H][C@@]12CN(C(=O)c3cccc(C)n3)C[C@]1([H])OCCN2c1ccc(C)nn1 | -4.07% | -3.699%
CC(C)(C)c1cnc(CN2CCC(CN3CCOCC3)CC2)o1 | 1.879% | -3.75%
[H][C@]12CC[C@@]3(N=C(CC)NC3=O)[C@@]1([H])CN(CC1CC1)C2 | - | -6.759%
O=C(O)C(F)(F)F.[H][C@@]12CCN(C(=O)NC)CC[C@]1(C(=O)N1CCOCC1)CCN2CC | -20.12% | 14.09%
CCc1cc(N(C)Cc2noc(C(C)C)n2)nc(N2CCOCC2)n1 | -94.09% | 3.461%
O=C(CCc1cccs1)N1CCCC(N2CCNC2=O)C1 (configuration not stated) | - | 4.988%
CNC(=O)CN1CCN(C(=O)Nc2ccc(C)s2)CC1 | -25.91% | -10.07%
CC(C)NC1CCc2c(ccc(=O)n2CC2CC2)C1.O=C(O)C(F)(F)F (configuration not stated) | -23.8% | -0.4554%
COc1cc(CNC2CCCc3c2cnn3C)cc(OC)c1.Cl (configuration not stated) | -18.03% | 0.9765%
Cc1cc(O)nc(C2CN(CCC(F)(F)F)CCO2)n1 (configuration not stated) | -8.282% | -9.445%
O=C(c1ccc[nH]1)N1CC2(CCN(c3ncccn3)C2)C1 | - | -3.048%
COCCCN1CCCC2(CCN(S(=O)(=O)c3cccnc3)C2)C1=O (configuration not stated) | -28.23% | 8.751%
Cc1occc1C(=O)N(CCN(C)C)Cc1ccccn1 | -11.74% | -7.611%
Cc1nnc(NC(=O)N2CCN(Cc3ccc(F)cc3)C(=O)C2)s1 | -7.517% | -5.772%
CCn1nc2c(cc1=O)CN(CC(=O)Nc1cc(C)no1)CC2 | -15.38% | 4.945%
CC(=O)N1CCc2[nH]cnc2C12CCN(C(=O)CCn1cccn1)CC2 | -48.28% | -6.626%
O=C(c1ccc(-n2cncn2)cc1)N1CCN(c2cnccn2)CC1 | 5.177% | 1.299%
CC(C)(C)C(=O)N1CCC2(CC1)CC(Oc1ccccc1)CO2 (configuration not stated) | -55.18% | -8.354%
Cc1nc(N2CCN(C)CC2)ncc1C(=O)N1CCCCCC1 | 1.436% | 5.43%
Cc1ccc(N2CCCC(NCc3cscn3)C2)nn1 (configuration not stated) | -30.89% | 0.5169%
c1ccc(-c2cc(CN3CCc4cncnc4C3)on2)cc1 | -19.83% | 4.712%
O=C(NC1CCCC1)NC1CCC(C(=O)N2CCSCC2)CC1 (configuration not stated) | -43.24% | -14.92%
CCCS(=O)(=O)N1CCC(Nc2c(F)cc(C#N)cc2F)CC1 | 9.556% | -1.551%
Cc1ccc(N2CCC3(CCCN(C(=O)c4cccnc4)C3)C2)nn1.O=C(O)C(F)(F)F (configuration not stated) | -45.39% | -4.785%
O=C(O)C(F)(F)F.O=C(O)C(F)(F)F.[H][C@@]12CCN(Cc3ccc(C)o3)C[C@]1([H])OCCN(Cc1cccnc1)C2=O | -12.65% | 13.36%
COCc1ncc(CN(CCN(C)C)Cc2ccc(C)s2)cn1 | -5.785% | 3.47%
COC(=O)CC1CSCCN1C(=O)CCc1c(C)nn(C)c1C (configuration not stated) | -36.74% | -17.87%
CCCSCC(=O)N1CCCC(c2nccn2Cc2ccncc2)C1 (configuration not stated) | -45.25% | 17.49%
COCCCN(C)C(=O)c1nnn(-c2ccccc2Cl)c1C | -52.94% | -2.697%
COc1ccccc1CN(Cc1nc(CC(C)C)no1)C1CC1 | -48.52% | -9.341%
OC1(Cn2ccc3ncccc32)CCN(Cc2cc(F)cc(F)c2)CC1 | 17.36% | 14.89%
CS(=O)(=O)c1ccc(Cl)c(C(=O)NCCC2=CCCCC2)c1 | -23.74% | -9.304%
Cc1[nH]ccc1C(=O)N1CCN(C)C2(CCC(=O)N(C)CC2)C1 (configuration not stated) | -12.35% | -0.5882%
[H][C@]12CCCCN1CCC[C@@]2(O)CNCCCOc1cccnc1 | - | -22.33%
[H][C@@]12CS(=O)(=O)C[C@]1([H])N(S(=O)(=O)c1cccs1)CCN2C(=O)COC | -47.2% | 1.416%
Cc1nccn1-c1ccc(C(C)NCCC(C)C)cc1 (configuration not stated) | -1.77% | -6.143%
COc1ccc(C2CC(=O)Nc3c2nc2n3CCCC2)cc1O (configuration not stated) | 33.34% | -38.54%
Cc1ccc(CN2CCC3(CCN(S(=O)(=O)c4ccccc4)C3)C2)o1 (configuration not stated) | -10.68% | 0.1829%
Cc1cc(-c2cnc(C(C)C)nc2CN(C)C(=O)c2ccccn2)on1 | -11.23% | 3.126%
CCN(CCS(=O)(=O)CC)CC1CCCO1 (configuration not stated) | -61.27% | -2.083%
O=c1cc2c(nn1CN1CCN(c3cccc(Cl)c3)CC1)CCC2 | 41.36% | 0.3586%
CC(C)c1cc(Br)ccc1NC(=O)NC(C)(CO)CO | -7.755% | -9.613%
CN1CC2(CCN(C(=O)c3ccc(-n4cccn4)cc3Cl)C2)OC1=O (configuration not stated) | -14.17% | 1.093%
CC(Oc1ccc(F)cc1)C(=O)N(CC(N)=O)C1CCCC1 (configuration not stated) | -51.83% | 10.54%
Fc1cnc(N2CCCn3cnc(COc4cccnc4)c3C2)nc1.O=C(O)C(F)(F)F | -43.51% | 3.975%
[H][C@]12CN(C(=O)c3scnc3C)CC[C@@]1(O)CCN(C(=O)N1CCCC1)C2 | -70.48% | -0.6071%

Once more, the final 7:

structure,A,B
CCN(CCS(=O)(=O)CC)CC1CCCO1 (configuration not stated),-61.27%,-2.083%
O=c1cc2c(nn1CN1CCN(c3cccc(Cl)c3)CC1)CCC2,41.36%,0.3586%
CC(C)c1cc(Br)ccc1NC(=O)NC(C)(CO)CO,-7.755%,-9.613%
CN1CC2(CCN(C(=O)c3ccc(-n4cccn4)cc3Cl)C2)OC1=O (configuration not stated),-14.17%,1.093%
CC(Oc1ccc(F)cc1)C(=O)N(CC(N)=O)C1CCCC1 (configuration not stated),-51.83%,10.54%
Fc1cnc(N2CCCn3cnc(COc4cccnc4)c3C2)nc1.O=C(O)C(F)(F)F,-43.51%,3.975%
[H][C@]12CN(C(=O)c3scnc3C)CC[C@@]1(O)CCN(C(=O)N1CCCC1)C2,-70.48%,-0.6071%